# Screening data

Source: PubChem BioAssay AID1053133 (Broad Institute, 2014).

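Vaccinia-infected cells with a two-color viral stage reporter; Venus fluorescence read on a plate reader; the cell line is not named here; timing not stated here. The test concentration is not given here. Percent change in Venus reporter signal; lower (more negative) values mean stronger inhibition of that viral stage.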

Values are in %. The controls that fix the scale are not given here. Common to all entries: measured here: Venus reporter, other viral stage. Part of the compounds only, not a random draw; the main read-out is not listed here.

For CCCC#Cc1ccc([C@H]2[C@H](CO)N3CCCCN(S(=O)(=O)c4ccccc4C)C[C@@H]23)cc1 the result was activity change (Venus) -69.5%. C[C@@H]1CN([C@H](C)CO)C(=O)c2cc(NC(=O)Nc3ccc(F)cc3)ccc2O[C@H]1CN(C)Cc1ccc(-c2ccccc2)cc1 gave activity change (Venus) -46.27%. Result for Cc1noc(C)c1S(=O)(=O)Nc1ccc2c(c1)C(=O)N([C@H](C)CO)C[C@H](C)[C@H](CN(C)Cc1ccc3c(c1)OCO3)OCCCC[C@H](C)O2 was activity change (Venus) -29.75%. For Cc1ccccc1-c1ccc([C@@H]2[C@H](CO)N3CCCCN(C(=O)Nc4cccc(F)c4)C[C@@H]23)cc1 the result was activity change (Venus) -89.23%.

Cc1ccccc1-c1ccc([C@H]2[C@@H](CO)N3CCCCN(C(=O)NC4CCCC4)C[C@H]23)cc1 gave activity change (Venus) -61.97%. With O=C(C[C@H]1CC[C@H]2[C@@H](COC[C@H](O)CN2Cc2ccc(Cl)cc2)O1)Nc1nccs1 the assay gave activity change (Venus) -26.01%. For C[C@@H]1CN([C@H](C)CO)S(=O)(=O)c2ccc(C#Cc3ccccc3)cc2O[C@H]1CN(C)C(=O)CN(C)C the result was activity change (Venus) -49.93%. Result for C[C@@H]1CN([C@@H](C)CO)C(=O)c2cccc(NC(=O)Nc3ccc(C(F)(F)F)cc3)c2O[C@@H]1CN(C)Cc1ccc(-c2ccccc2)cc1 was activity change (Venus) -40.17%.

With Cc1ccc(S(=O)(=O)N(C)C[C@@H]2Oc3c(NC(=O)Nc4ccc(C(F)(F)F)cc4)cccc3C(=O)N([C@H](C)CO)C[C@@H]2C)cc1 the assay gave activity change (Venus) -28.71%. Result for O=C(c1ccccn1)N1CC[C@@H]2[C@H](CO)Nc3ccc(-c4ccc(F)cc4)cc3[C@@H]21 was activity change (Venus) -25.8%. COc1cccc(-c2ccc3c(c2)[C@H]2[C@H](CCN2C(=O)C2CCCCC2)[C@H](CO)N3)c1 gave activity change (Venus) -25.04%. Result for CN(C)C(=O)[C@@]1(Cc2ccccc2CN=[N+]=[N-])COC(c2ccc(OCCCO)cc2)=N1 was activity change (Venus) -27.84%.

Cc1cccc(-c2ccc([C@H]3[C@H]4CN(C(=O)c5cccnc5)CCCCN4[C@H]3CO)cc2)c1 read activity change (Venus) -59.61%. C[C@@H]1CN([C@H](C)CO)C(=O)c2cc(NC(=O)CCC(F)(F)F)ccc2O[C@@H]1CN(C)Cc1ccc(Oc2ccccc2)cc1 gave activity change (Venus) -30.12%. For C[C@@H]1CN([C@@H](C)CO)S(=O)(=O)c2ccc(C#CC3CCCC3)cc2O[C@H]1CN(C)C(=O)Cc1ccncc1 the result was activity change (Venus) -40.05%. For COc1ccc(CN(C)C[C@H]2OCCCC[C@@H](C)Oc3ccc(NC(=O)NC4CCCCC4)cc3C(=O)N([C@@H](C)CO)C[C@@H]2C)cc1 the result was activity change (Venus) -51.48%.

With C[C@@H]1CN([C@@H](C)CO)C(=O)c2cc(NC(=O)C3CCCCC3)ccc2O[C@@H](C)CCCCO[C@H]1CN(C)CC1CCCCC1 the assay gave activity change (Venus) -60.78%. Result for C[C@@H]1CN([C@H](C)CO)C(=O)c2cccc(NS(=O)(=O)c3ccc(F)cc3)c2O[C@@H]1CN(C)Cc1ccc(Cl)c(Cl)c1 was activity change (Venus) -25.03%. Result for C[C@H]1CN([C@@H](C)CO)S(=O)(=O)c2ccc(-c3ccccc3)cc2O[C@@H]1CN(C)S(=O)(=O)c1ccccc1F was activity change (Venus) -57.31%. Result for C[C@H](CO)N1C[C@H](C)[C@@H](CN(C)Cc2ccc3c(c2)OCO3)Oc2ccc(NS(=O)(=O)c3ccc(Cl)cc3)cc2CC1=O was activity change (Venus) -36.88%.

Result for COc1ccc(S(=O)(=O)Nc2ccc3c(c2)C(=O)N([C@H](C)CO)C[C@H](C)[C@H](CN(C)Cc2ccc(C(F)(F)F)cc2)OCCCC[C@H](C)O3)cc1 was activity change (Venus) -85.15%. For COc1ccc(CN(C)C[C@@H]2OCCCC[C@H](C)Oc3ccc(NS(=O)(=O)c4ccc(Cl)cc4)cc3C(=O)N([C@H](C)CO)C[C@@H]2C)cc1 the result was activity change (Venus) -65.14%. C[C@@H]1CCCCO[C@@H](CN(C)C(=O)NC2CCCCC2)[C@H](C)CN([C@H](C)CO)C(=O)c2cc(NC(=O)C3CCCCC3)ccc2O1 gave activity change (Venus) -45.94%. Result for COc1cccc(S(=O)(=O)Nc2ccc3c(c2)C(=O)N(C)[C@H]2CC[C@@H](CC(=O)NCC4CCCCC4)O[C@H]2CO3)c1 was activity change (Venus) -29.8%.

With O=C(NC1CCCCC1)N1CC(=O)N2[C@H](CO)[C@H](c3ccc(/C=C/c4ccccc4)cc3)[C@H]2C1 the assay gave activity change (Venus) -61.85%. Result for C[C@@H]1CN([C@@H](C)CO)S(=O)(=O)c2ccc(C3=CCCCC3)cc2O[C@@H]1CN(C)Cc1ccncc1 was activity change (Venus) -45.34%. With CNC[C@@H]1Oc2cc(C#Cc3cccc(F)c3)ccc2S(=O)(=O)N([C@@H](C)CO)C[C@H]1C the assay gave activity change (Venus) -28.28%. C[C@@H]1CCCCO[C@@H](CN(C)C(=O)c2ccccc2)[C@H](C)CN([C@H](C)CO)C(=O)c2cc(NC(=O)c3ccccc3)ccc2O1 gave activity change (Venus) -32.96%.

With O=C(Nc1cccc(F)c1)N1CC(=O)N2[C@H](CO)[C@H](c3ccc(-c4cccc(F)c4)cc3)[C@@H]2C1 the assay gave activity change (Venus) -39.22%. For C[C@@H]1CN([C@H](C)CO)C(=O)c2cccc(NS(=O)(=O)c3cccs3)c2O[C@H]1CN(C)Cc1ccc(-c2ccccc2)cc1 the result was activity change (Venus) -32.01%. Cc1ccc(S(=O)(=O)N[C@H]2C=C[C@@H](CC(=O)N3CCC(Cc4ccccc4)CC3)O[C@H]2CO)cc1 read activity change (Venus) -31.93%. C[C@H](O)C#Cc1cnc2c(c1)C(=O)N([C@@H](C)CO)C[C@H](C)[C@@H](CN(C)Cc1ccc(-c3ccccc3)cc1)O2 read activity change (Venus) -58.68%.

With CCCC#Cc1ccc([C@@H]2[C@@H](CO)N3CCCCN(S(=O)(=O)Cc4ccccc4)C[C@@H]23)cc1 the assay gave activity change (Venus) -29.5%. Result for Cc1noc(C)c1S(=O)(=O)Nc1ccc2c(c1)C(=O)N([C@H](C)CO)C[C@@H](C)[C@@H](CN(C)S(=O)(=O)c1ccccc1)OCCCC[C@@H](C)O2 was activity change (Venus) -23.39%. For C[C@@H]1CN([C@H](C)CO)C(=O)c2c(c3ccccc3n2C)-c2ccccc2CO[C@@H]1CN(C)Cc1cccc2c1OCCCO2 the result was activity change (Venus) -61.77%. O=C(C[C@H]1CC[C@H]2[C@@H](COC[C@H](O)CN2C(=O)Nc2ccc(Cl)c(Cl)c2)O1)NCc1ccncc1 gave activity change (Venus) -59.04%.

For reference, 4 entries once more:

SMILES	activity change (Venus) (%)
CCCC#Cc1ccc([C@@H]2[C@@H](CO)N3CCCCN(S(=O)(=O)Cc4ccccc4)C[C@@H]23)cc1	-29.5
O=C(NC1CCCCC1)N1CC(=O)N2[C@H](CO)[C@H](c3ccc(/C=C/c4ccccc4)cc3)[C@H]2C1	-61.85
O=C(c1ccccn1)N1CC[C@@H]2[C@H](CO)Nc3ccc(-c4ccc(F)cc4)cc3[C@@H]21	-25.8
CN(C)C(=O)[C@@]1(Cc2ccccc2CN=[N+]=[N-])COC(c2ccc(OCCCO)cc2)=N1	-27.84